In paper PMC7819943, “Rice protein-binding microarrays: a tool to detect cis-acting elements near promoter regions in rice”:
The other results are listed elsewhere or left out.

Target: T1, OsSMF1 (Oryza sativa, UniProt Q6ZLB0 1-436)
T1 sequence: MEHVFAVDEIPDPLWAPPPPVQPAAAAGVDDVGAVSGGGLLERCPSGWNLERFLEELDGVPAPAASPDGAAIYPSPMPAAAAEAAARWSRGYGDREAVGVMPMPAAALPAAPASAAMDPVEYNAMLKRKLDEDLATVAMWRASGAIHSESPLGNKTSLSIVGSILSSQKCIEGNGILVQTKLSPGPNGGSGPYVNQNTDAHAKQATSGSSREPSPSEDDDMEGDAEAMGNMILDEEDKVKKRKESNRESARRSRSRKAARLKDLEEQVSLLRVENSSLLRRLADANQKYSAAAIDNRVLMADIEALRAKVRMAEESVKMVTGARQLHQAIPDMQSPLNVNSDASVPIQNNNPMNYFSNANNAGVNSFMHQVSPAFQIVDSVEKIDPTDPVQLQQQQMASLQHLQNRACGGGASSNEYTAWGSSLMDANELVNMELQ
Test: protein-binding microarray (RPBM); PBS, 2% BSA, 51.3 ng/ul salmon testes DNA, 50 uM zinc acetate, 200 nM TF, 25 C, 1 h; high values mean tight binding
Settings: protein: recombinant; tags: N-terminal polyhistidine and DsRed monomer fusion (pET32a); chain copies: 2; label: CyDye5-dUTP incorporated in the synthesized complementary strand; 3' TTTTT single-stranded linker to array surface; dsDNA, one strand shown
Method in brief: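 For the binding signal, per-feature fluorescence intensity was read in arbitrary units on an Axon 4000B scanner. Before scanning, a 2% BSA-blocked custom Agilent array made double-stranded with Cy5-dUTP was washed after 1 h at 25 °C with 200 nM protein and 50 µM zinc acetate. The proteins were Ni–NTA-purified transcription factors with N-terminal polyhistidine and DsRed fusions, expressed in E. coli BL21-CodonPlus.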

| Sequence | binding signal |
| --- | --- |
| TATGCTCCTCTTTCAGGGTTATGGTATGACTGAGACTTGTCGGAGTCACCTAGTGCAG | 3370 fluorescence intensity (a.u.) |
| GATAAGTCTATCGTGGGTCGTGGCCCATCGCACACCGGCACGGAGTCACCTAGTGCAG | 3270 fluorescence intensity (a.u.) |
| TTCTCCGGATCGCTTCTTCCACCTCGCGCGCACTTCACCTCGGAGTCACCTAGTGCAG | 3240 fluorescence intensity (a.u.) |
| CTATCTGTCATCCACATGACGTATAAGTGACACGATAAGTCGGAGTCACCTAGTGCAG | 3750 fluorescence intensity (a.u.) |
| CGCGGCTGGCGTTGATGGCGGTGACGCGGCCCATGCATGGCGGAGTCACCTAGTGCAG | 5920 fluorescence intensity (a.u.) |
| AGTGATGCTGAACTTTATTCACATACCTACTCGTGGCATTCGGAGTCACCTAGTGCAG | 3840 fluorescence intensity (a.u.) |
| TCCATCGTCATCAAATTCATCGTATCCCTGGACGGGCAGACGGAGTCACCTAGTGCAG | 3250 fluorescence intensity (a.u.) |
| GCATCTACCCGTCCAACTCATTTATCAGCATGCAAATTTTCGGAGTCACCTAGTGCAG | 4800 fluorescence intensity (a.u.) |
| GGTCACCACTTGTCAAGTTGTCATCATCACTGGCCTACTCCGGAGTCACCTAGTGCAG | 3680 fluorescence intensity (a.u.) |
| AGATAATAATTATCAGTGGGTAATGATGTGGCACACTTACCGGAGTCACCTAGTGCAG | 11200 fluorescence intensity (a.u.) |
| AAGAAGAACAGATTAATCGCCCAGTCTCTGTCAGACAAGGCGGAGTCACCTAGTGCAG | 3400 fluorescence intensity (a.u.) |
| ACGACGAGACGACACACTTACAACGGCCGCCTCGGTCTCCCGGAGTCACCTAGTGCAG | 3240 fluorescence intensity (a.u.) |
| GCTGCCTCCACGTCTCCACCTCGCACCGCGCCAAGGCGGCCGGAGTCACCTAGTGCAG | 4520 fluorescence intensity (a.u.) |
| TTTATCTACGTGTTCATGTACTGCTACAATCGCCATAATTCGGAGTCACCTAGTGCAG | 4110 fluorescence intensity (a.u.) |
| TGGCCCATATTAGCCCATTGAGAGCCCAGATGACTCATGGCGGAGTCACCTAGTGCAG | 8280 fluorescence intensity (a.u.) |
| TCATCAGAAGTAGCGAGAGGGCAAGATCCGGAGAAGTAATCGGAGTCACCTAGTGCAG | 7740 fluorescence intensity (a.u.) |
| ACTCCGGTTTTATCCCACGTGGCGGCTGAGTCCCCACATGCGGAGTCACCTAGTGCAG | 14200 fluorescence intensity (a.u.) |
| CAAATGACATGGTAAGACAATACTACCACGTCAGCCAAAACGGAGTCACCTAGTGCAG | 11600 fluorescence intensity (a.u.) |
| TGATGGCCGGTGATCAGTGGCATGTGCATGTTATATTATTCGGAGTCACCTAGTGCAG | 3260 fluorescence intensity (a.u.) |
| ACTTTCTTGAATTTAATGCGTGACTCTCCATTCGTCCACACGGAGTCACCTAGTGCAG | 3620 fluorescence intensity (a.u.) |
| GTCCGGCTGGCGAGCATGCGGCACTCGGCGAGCAGGTCGTCGGAGTCACCTAGTGCAG | 26300 fluorescence intensity (a.u.) |
| AAGACAGATTCCACCACTGCCAAGTGCCAGCGCAGTCCTCCGGAGTCACCTAGTGCAG | 3720 fluorescence intensity (a.u.) |
| TATGTGAGATTTGTTACAACGAACAGGTAATTTAAAATTGCGGAGTCACCTAGTGCAG | 32400 fluorescence intensity (a.u.) |
| TCGTTGCTTGGCCACTGACTTGCGAGTTGCGACAATTCCTCGGAGTCACCTAGTGCAG | 3190 fluorescence intensity (a.u.) |
| TAATAGCTTACAGTAGGTAGGTAGATTCGTGTACGTGTGGCGGAGTCACCTAGTGCAG | 3240 fluorescence intensity (a.u.) |
| GCCCACGGCGCACACTTAGCGGTACACGTGTACGGCAGAGCGGAGTCACCTAGTGCAG | 7410 fluorescence intensity (a.u.) |
| GAGGACAGATCAAATGATTTTAATGACGAAACATGTGCTTCGGAGTCACCTAGTGCAG | 4096 fluorescence intensity (a.u.) |

| Sequence | binding signal |
| --- | --- |
| CTTGCTCGATTGCCGCCGCCAGGAACTGGTCATGCGTGTTCGGAGTCACCTAGTGCAG | 3210 fluorescence intensity (a.u.) |
| TGGGTCATATCTCATCCTAGGTAGAGTTATTTTGGGACGGCGGAGTCACCTAGTGCAG | 3160 fluorescence intensity (a.u.) |
| CGGTTCCGACAACAGCAGCCGCTGGGCGGAGCCATCGCCCCGGAGTCACCTAGTGCAG | 28000 fluorescence intensity (a.u.) |
| TAGATAATAAGCTCTGACATGTGGGACCCACGTATGAAAACGGAGTCACCTAGTGCAG | 3630 fluorescence intensity (a.u.) |
| CACGATCCATCATATCGCTTGAGCTAGCCACAACACACAACGGAGTCACCTAGTGCAG | 22100 fluorescence intensity (a.u.) |
| ACCTTGCCGCTCTATTCAGTAGCATGCTTGAGTGTCCGTGCGGAGTCACCTAGTGCAG | 3370 fluorescence intensity (a.u.) |
| GTAATAAGATACTTCGTCTCAACACGTCAAACTAGGTGAACGGAGTCACCTAGTGCAG | 3550 fluorescence intensity (a.u.) |
| TTCTCCTTGCCACGCATTGACATCTTCCTGAAACTTGGTGCGGAGTCACCTAGTGCAG | 8130 fluorescence intensity (a.u.) |
| TAGGCCCAAATGCCAGCCCAAGCACGTGTATGGGGCCGTACGGAGTCACCTAGTGCAG | 3250 fluorescence intensity (a.u.) |
| AACTCGATCCACGTCGCTCTCGCTCGCCACAGACACGGGCCGGAGTCACCTAGTGCAG | 4500 fluorescence intensity (a.u.) |
| AGTATTTTAAATCATATACAAGTACGTCACATCATCACTCCGGAGTCACCTAGTGCAG | 3720 fluorescence intensity (a.u.) |
| GTAGCTGAGTCAGTCGACCCACCCTGCCTAATGGGTATATCGGAGTCACCTAGTGCAG | 10400 fluorescence intensity (a.u.) |
| ACCACCACTGCCACTGTAGCGTCATGCTGTAACGCTCGCTCGGAGTCACCTAGTGCAG | 4940 fluorescence intensity (a.u.) |
| AAACTCGCGAGTTGGCCCCACGTGTCATCCTCACGACCGTCGGAGTCACCTAGTGCAG | 11400 fluorescence intensity (a.u.) |
| GCATATGTAAACCACCAACAGTCACCCACTCACCTGTTAACGGAGTCACCTAGTGCAG | 3970 fluorescence intensity (a.u.) |
| TTTTCAATATACTTGTAAAATTATAATGGTATAGTTGCAACGGAGTCACCTAGTGCAG | 28100 fluorescence intensity (a.u.) |
| TGTTCAGGATGTCCGGAGAATGATGGTGGAAAGGGGCCTCCGGAGTCACCTAGTGCAG | 3190 fluorescence intensity (a.u.) |
| GCATGCATTGCCTCTTGCTCGCCTACGTGGTAATGAAAACCGGAGTCACCTAGTGCAG | 6560 fluorescence intensity (a.u.) |
| ACCAAACTTCCCTCCACGCCTGCTTCGCCCAACTCGTTCTCGGAGTCACCTAGTGCAG | 4080 fluorescence intensity (a.u.) |
| CACTCGCACCCATCTCATCACCGAGTCACCGGCACCGGTCCGGAGTCACCTAGTGCAG | 5200 fluorescence intensity (a.u.) |
| TAGATCAGGGACATAGTGACATCGTTTGATGGCACTTCTACGGAGTCACCTAGTGCAG | 3320 fluorescence intensity (a.u.) |
| TTGGCATCAGTCAAAACTAACTAAACCTACTTTATCCATACGGAGTCACCTAGTGCAG | 3680 fluorescence intensity (a.u.) |
| GGGACGAGAGGAGCAACGCGCGGGCGCCGGCTGGCAAGAGCGGAGTCACCTAGTGCAG | 3960 fluorescence intensity (a.u.) |
| CCCGGGTCGGGGTCGGGGTCCGGGGTCGGGGTCCCCAACTCGGAGTCACCTAGTGCAG | 3860 fluorescence intensity (a.u.) |
| GTAATTGAAGATCGGAGTGTTGTATTTGAGCTGGCAAGTTCGGAGTCACCTAGTGCAG | 4480 fluorescence intensity (a.u.) |
| GCCACAGAAGATCACGGGCAGCTGACGTGGTGCGCCGTCACGGAGTCACCTAGTGCAG | 21800 fluorescence intensity (a.u.) |
| TTTAGTGACACCCAGCTGATATCGTGATTTGCAAATAGTACGGAGTCACCTAGTGCAG | 3510 fluorescence intensity (a.u.) |

Pulled one by one from above:

| Sequence | binding signal |
| --- | --- |
| TTCTCCTTGCCACGCATTGACATCTTCCTGAAACTTGGTGCGGAGTCACCTAGTGCAG | 8130 fluorescence intensity (a.u.) |
| ACCAAACTTCCCTCCACGCCTGCTTCGCCCAACTCGTTCTCGGAGTCACCTAGTGCAG | 4080 fluorescence intensity (a.u.) |
